Experimental data reported in paper PMC10598014.
These are yes or no findings as the source states them, for the method shown. In cells and extracts the contact can be indirect. Some results given as binding are weak or reduced against the parent protein; the word gives no strength.

Amino acid sequences for entries named in this document (tags omitted).
UniProt Q9BWT3: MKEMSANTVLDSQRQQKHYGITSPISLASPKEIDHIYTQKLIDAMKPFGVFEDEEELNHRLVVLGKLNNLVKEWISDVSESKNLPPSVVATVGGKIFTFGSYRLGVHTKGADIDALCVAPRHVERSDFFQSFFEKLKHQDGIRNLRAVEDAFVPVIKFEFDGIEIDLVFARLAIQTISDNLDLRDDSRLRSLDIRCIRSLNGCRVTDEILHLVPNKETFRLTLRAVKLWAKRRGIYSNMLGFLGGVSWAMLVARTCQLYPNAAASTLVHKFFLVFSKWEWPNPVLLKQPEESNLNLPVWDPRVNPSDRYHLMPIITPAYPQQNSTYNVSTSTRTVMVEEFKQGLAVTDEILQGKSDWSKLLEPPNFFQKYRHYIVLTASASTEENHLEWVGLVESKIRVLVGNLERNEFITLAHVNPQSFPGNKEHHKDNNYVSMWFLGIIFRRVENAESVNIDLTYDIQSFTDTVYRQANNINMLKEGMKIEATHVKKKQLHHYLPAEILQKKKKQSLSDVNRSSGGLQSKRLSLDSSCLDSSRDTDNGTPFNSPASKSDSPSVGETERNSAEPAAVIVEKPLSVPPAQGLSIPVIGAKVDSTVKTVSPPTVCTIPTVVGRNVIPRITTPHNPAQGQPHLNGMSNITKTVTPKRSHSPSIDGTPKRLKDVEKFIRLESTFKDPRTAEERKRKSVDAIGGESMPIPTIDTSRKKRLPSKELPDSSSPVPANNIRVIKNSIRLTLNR
UniProt Q16630: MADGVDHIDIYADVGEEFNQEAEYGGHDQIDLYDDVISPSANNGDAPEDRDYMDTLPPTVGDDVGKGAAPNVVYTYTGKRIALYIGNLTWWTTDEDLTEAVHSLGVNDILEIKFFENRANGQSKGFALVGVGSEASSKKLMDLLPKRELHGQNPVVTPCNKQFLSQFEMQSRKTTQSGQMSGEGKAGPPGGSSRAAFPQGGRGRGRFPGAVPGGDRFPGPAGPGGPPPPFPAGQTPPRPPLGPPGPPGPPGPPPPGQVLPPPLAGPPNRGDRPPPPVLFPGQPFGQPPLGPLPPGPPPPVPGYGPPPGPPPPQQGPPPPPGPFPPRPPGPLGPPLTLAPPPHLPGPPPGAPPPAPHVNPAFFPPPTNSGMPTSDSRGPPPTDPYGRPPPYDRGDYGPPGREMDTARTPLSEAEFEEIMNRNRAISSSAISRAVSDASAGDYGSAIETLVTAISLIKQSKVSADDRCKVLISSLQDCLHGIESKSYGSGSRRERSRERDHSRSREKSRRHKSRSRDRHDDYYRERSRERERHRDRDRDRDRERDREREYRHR

Legend:
[1] = target: ZFC3H1 (human (endogenous in HeLa)) (UniProt O60293); test: co-IP; endogenous proteins; HeLa nuclear extracts treated with micrococcal nuclease; 50 mM tris pH 7.6, 150 mM NaCl, 1% NP-40; 2 μg antibody overnight at 4 °C, Protein A Dynabeads; IgG control; immunoblot
[2] = target: ZFC3H1 (human (endogenous in HeLa)) (UniProt O60293); test: co-IP; as the co-IP from HeLa nuclear extracts, immunoprecipitates incubated with RNAse A/T cocktail (1.2 μL/mL of immunoprecipitation buffer) for 30 min at RT, followed by 5 washes
[3] = target: polyA polymerase gamma (PAPγ) (human (endogenous in HEK-293T and HeLa)) (UniProt Q9BWT3); test: co-IP; endogenous proteins; HeLa nuclear extracts treated with micrococcal nuclease; 50 mM tris pH 7.6, 150 mM NaCl, 1% NP-40; 2 μg antibody overnight at 4 °C, Protein A Dynabeads; IgG control; immunoblot
[4] = target: polyA polymerase gamma (PAPγ) (human (endogenous in HEK-293T and HeLa)) (UniProt Q9BWT3); test: co-IP; as the co-IP from HeLa nuclear extracts, immunoprecipitates incubated with RNAse A/T cocktail (1.2 μL/mL of immunoprecipitation buffer) for 30 min at RT, followed by 5 washes
[5] = target: T1, ZFC3H1 (human (endogenous in HeLa)), O60293; test: co-IP; endogenous proteins; HeLa nuclear extracts treated with micrococcal nuclease; 50 mM tris pH 7.6, 150 mM NaCl, 1% NP-40; 2 μg antibody overnight at 4 °C, Protein A Dynabeads; IgG control; immunoblot; details: remark: other sources report otherwise
T1 chain: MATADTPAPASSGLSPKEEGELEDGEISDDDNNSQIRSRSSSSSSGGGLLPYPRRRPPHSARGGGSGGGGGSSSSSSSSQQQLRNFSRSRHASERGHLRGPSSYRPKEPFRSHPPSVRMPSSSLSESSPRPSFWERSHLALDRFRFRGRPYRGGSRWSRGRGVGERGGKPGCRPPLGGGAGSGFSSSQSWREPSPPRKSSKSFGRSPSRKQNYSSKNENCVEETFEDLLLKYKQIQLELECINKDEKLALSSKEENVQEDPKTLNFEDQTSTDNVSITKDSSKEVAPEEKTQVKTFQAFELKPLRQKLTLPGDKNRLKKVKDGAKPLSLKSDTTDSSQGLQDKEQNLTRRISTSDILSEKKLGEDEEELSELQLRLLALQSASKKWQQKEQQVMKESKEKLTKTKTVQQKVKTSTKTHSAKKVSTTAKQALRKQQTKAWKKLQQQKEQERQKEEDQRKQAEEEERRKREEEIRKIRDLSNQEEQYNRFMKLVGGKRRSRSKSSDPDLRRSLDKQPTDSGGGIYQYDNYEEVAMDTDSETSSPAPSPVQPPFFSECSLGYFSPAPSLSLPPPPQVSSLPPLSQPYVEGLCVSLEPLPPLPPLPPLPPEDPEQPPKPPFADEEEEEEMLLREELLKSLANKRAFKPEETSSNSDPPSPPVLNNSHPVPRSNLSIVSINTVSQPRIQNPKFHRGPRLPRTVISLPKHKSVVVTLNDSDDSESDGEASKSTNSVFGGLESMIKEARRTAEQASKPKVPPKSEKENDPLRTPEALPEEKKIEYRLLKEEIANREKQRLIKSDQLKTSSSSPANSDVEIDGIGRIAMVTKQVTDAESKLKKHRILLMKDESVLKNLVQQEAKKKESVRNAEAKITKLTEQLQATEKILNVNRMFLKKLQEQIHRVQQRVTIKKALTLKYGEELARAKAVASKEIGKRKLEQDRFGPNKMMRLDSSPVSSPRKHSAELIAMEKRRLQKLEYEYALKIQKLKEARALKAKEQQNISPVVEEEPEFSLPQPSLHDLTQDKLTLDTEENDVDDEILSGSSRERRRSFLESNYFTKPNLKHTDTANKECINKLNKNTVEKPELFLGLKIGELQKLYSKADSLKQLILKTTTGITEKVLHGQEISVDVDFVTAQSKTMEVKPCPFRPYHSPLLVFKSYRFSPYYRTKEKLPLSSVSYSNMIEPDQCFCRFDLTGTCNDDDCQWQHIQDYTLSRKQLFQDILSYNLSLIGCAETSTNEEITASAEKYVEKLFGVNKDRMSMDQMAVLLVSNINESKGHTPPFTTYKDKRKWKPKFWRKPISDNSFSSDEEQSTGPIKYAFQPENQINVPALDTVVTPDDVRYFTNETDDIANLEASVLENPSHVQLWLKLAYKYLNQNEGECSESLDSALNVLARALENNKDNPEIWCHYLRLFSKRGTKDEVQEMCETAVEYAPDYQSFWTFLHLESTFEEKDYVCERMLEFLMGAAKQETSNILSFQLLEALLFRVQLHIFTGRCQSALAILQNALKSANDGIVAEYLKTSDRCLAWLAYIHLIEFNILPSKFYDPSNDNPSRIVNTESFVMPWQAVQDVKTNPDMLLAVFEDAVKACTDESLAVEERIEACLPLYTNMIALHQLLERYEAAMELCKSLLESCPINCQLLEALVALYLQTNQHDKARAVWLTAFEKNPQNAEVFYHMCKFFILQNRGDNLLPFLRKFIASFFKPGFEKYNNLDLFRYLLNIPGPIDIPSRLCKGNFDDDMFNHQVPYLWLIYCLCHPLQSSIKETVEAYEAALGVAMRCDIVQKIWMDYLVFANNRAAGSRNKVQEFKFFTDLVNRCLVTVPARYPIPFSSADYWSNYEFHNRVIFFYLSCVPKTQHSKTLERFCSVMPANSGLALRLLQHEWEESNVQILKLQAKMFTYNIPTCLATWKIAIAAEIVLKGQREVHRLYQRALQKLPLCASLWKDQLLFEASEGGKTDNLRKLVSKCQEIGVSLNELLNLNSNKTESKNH

CPSF6 (from UniProt Q16630 1-551)
binding [1]: binds

polyA polymerase gamma (PAPγ) (from UniProt Q9BWT3 1-736) (enzyme)
binding [1]: binds | binding [2]: binds

B1: RBM27 (protein, UniProt Q9P2N5 1-1060)
chain: MLIEDVDALKSWLAKLLEPICDADPSALANYVVALVKKDKPEKELKAFCADQLDVFLQKETSGFVDKLFESLYTKNYLPLLEPVKPEPKPLVQEKEEIKEEVFQEPAEEERDGRKKKYPSPQKTRSESSERRTREKKREDGKWRDYDRYYERNELYREKYDWRRGRSKSRSKSRGLSRSRSRSRGRSKDRDPNRNVEHRERSKFKSERNDLESSYVPVSAPPPNSSEQYSSGAQSIPSTVTVIAPAHHSENTTESWSNYYNNHSSSNSFGRNLPPKRRCRDYDERGFCVLGDLCQFDHGNDPLVVDEVALPSMIPFPPPPPGLPPPPPPGMLMPPMPGPGPGPGPGPGPGPGPGPGPGHSMRLPVPQGHGQPPPSVVLPIPRPPITQSSLINSRDQPGTSAVPNLASVGTRLPPPLPQNLLYTVSERQPMYSREHGAAASERLQLGTPPPLLAARLVPPRNLMGSSIGYHTSVSSPTPLVPDTYEPDGYNPEAPSITSSGRSQYRQFFSRTQTQRPNLIGLTSGDMDVNPRAANIVIQTEPPVPVSINSNITRVVLEPDSRKRAMSGLEGPLTKKPWLGKQGNNNQNKPGFLRKNQYTNTKLEVKKIPQELNNITKLNEHFSKFGTIVNIQVAFKGDPEAALIQYLTNEEARKAISSTEAVLNNRFIRVLWHRENNEQPTLQSSAQLLLQQQQTLSHLSQQHHHLPQHLHQQQVLVAQSAPSTVHGGIQKMMSKPQTSGAYVLNKVPVKHRLGHAGGNQSDASHLLNQSGGAGEDCQIFSTPGHPKMIYSSSNLKTPSKLCSGSKSHDVQEVLKKKQEAMKLQQDMRKKRQEVLEKQIECQKMLISKLEKNKNMKPEERANIMKTLKELGEKISQLKDELKTSSAVSTPSKVKTKTEAQKELLDTELDLHKRLSSGEDTTELRKKLSQLQVEAARLGILPVGRGKTMSSQGRGRGRGRGGRGRGSLNHMVVDHRPKALTVGGFIEEEKEDLLQHFSTANQGPKFKDRRLQISWHKPKVPSISTETEEEEVKEEETETSDLFLPDDDDEDEDEYESRSWRR
binding [1]: binds | binding [3]: binds | binding [2]: binds | binding [4]: binds

B2: PABPN1, Q86U42 1-306 (protein)
chain: MAAAAAAAAAAGAAGGRGSGPGRRRHLVPGAGGEAGEGAPGGAGDYGNGLESEELEPEELLLEPEPEPEPEEEPPRPRAPPGAPGPGPGSGAPGSQEEEEEPGLVEGDPGDGAIEDPELEAIKARVREMEEEAEKLKELQNEVEKQMNMSPPPGNAGPVIMSIEEKMEADARSIYVGNVDYGATAEELEAHFHGCGSVNRVTILCDKFSGHPKGFAYIEFSDKESVRTSLALDESLFRGRQIKVIPKRTNRPGISTTDRGFPRARYRARTTNYNSSRSRFYSGFNSRPRGRVYRGRARATSWYSPY
binding [5]: binds

B3: ZC3H14 (protein, UniProt Q6PJT7 1-736)
chain: MEIGTEISRKIRSAIKGKLQELGAYVDEELPDYIMVMVANKKSQDQMTEDLSLFLGNNTIRFTVWLHGVLDKLRSVTTEPSSLKSSDTNIFDSNVPSNKSNFSRGDERRHEAAVPPLAIPSARPEKRDSRVSTSSQESKTTNVRQTYDDGAATRLMSTVKPLREPAPSEDVIDIKPEPDDLIDEDLNFVQENPLSQKKPTVTLTYGSSRPSIEIYRPPASRNADSGVHLNRLQFQQQQNSIHAAKQLDMQSSWVYETGRLCEPEVLNSLEETYSPFFRNNSEKMSMEDENFRKRKLPVVSSVVKVKKFNHDGEEEEEDDDYGSRTGSISSSVSVPAKPERRPSLPPSKQANKNLILKAISEAQESVTKTTNYSTVPQKQTLPVAPRTRTSQEELLAEVVQGQSRTPRISPPIKEEETKGDSVEKNQGTQQRQLLSRLQIDPVMAETLQMSQDYYDMESMVHADTRSFILKKPKLSEEVVVAPNQESGMKTADSLRVLSGHLMQTRDLVQPDKPASPKFIVTLDGVPSPPGYMSDQEEDMCFEGMKPVNQTAASNKGLRGLLHPQQLHLLSRQLEDPNGSFSNAEMSELSVAQKPEKLLERCKYWPACKNGDECAYHHPISPCKAFPNCKFAEKCLFVHPNCKYDAKCTKPDCPFTHVSRRIPVLSPKPAVAPPAPPSSSQLCRYFPACKKMECPFYHPKHCRFNTQCTRPDCTFYHPTINVPPRHALKWIRPQTSE
binding [1]: binds

B4: YTHDC2 (protein, UniProt Q9H6S0 1-1430)
chain: MSRPSSVSPRQPAPGGGGGGGPSPCGPGGGGRAKGLKDIRIDEEVKIAVNIALERFRYGDQREMEFPSSLTSTERAFIHRLSQSLGLVSKSKGKGANRYLTVKKKDGSETAHAMMTCNLTHNTKHAVRSLIQRFPVTNKERTELLPKTERGNVFAVEAENREMSKTSGRLNNGIPQIPVKRGESEFDSFRQSLPVFEKQEEIVKIIKENKVVLIVGETGSGKTTQIPQFLLDDCFKNGIPCRIFCTQPRRLAAIAVAERVAAERRERIGQTIGYQIRLESRVSPKTLLTFCTNGVLLRTLMAGDSTLSTVTHVIVDEVHERDRFSDFLLTKLRDLLQKHPTLKLILSSAALDVNLFIRYFGSCPVIYIQGRPFEVKEMFLEDILRTTGYTNKEMLKYKKEKQQEEKQQTTLTEWYSAQENSFKPESQRQRTVLNVTDEYDLLDDGGDAVFSQLTEKDVNCLEPWLIKEMDACLSDIWLHKDIDAFAQVFHLILTENVSVDYRHSETSATALMVAAGRGFASQVEQLISMGANVHSKASNGWMALDWAKHFGQTEIVDLLESYSATLEFGNLDESSLVQTNGSDLSAEDRELLKAYHHSFDDEKVDLDLIMHLLYNICHSCDAGAVLIFLPGYDEIVGLRDRILFDDKRFADSTHRYQVFMLHSNMQTSDQKKVLKNPPAGVRKIILSTNIAETSITVNDVVFVIDSGKVKEKSFDALNFVTMLKMVWISKASAIQRKGRAGRCRPGICFRLFSRLRFQNMLEFQTPELLRMPLQELCLHTKLLAPVNCPIADFLMKAPEPPPALIVRNAVQMLKTIDAMDTWEDLTELGYHLADLPVEPHLGKMVLCAVVLKCLDPILTIACTLAYRDPFVLPTQASQKRAAMLCRKRFTAGAFSDHMALLRAFQAWQKARSDGWERAFCEKNFLSQATMEIIIGMRTQLLGQLRASGFVRARGGGDIRDVNTNSENWAVVKAALVAGMYPNLVHVDRENLVLTGPKEKKVRFHPASVLSQPQYKKIPPANGQAAAIKALPTDWLIYDEMTRAHRIANIRCCSAVTPVTILVFCGPARLASNALQEPSSFRVDGIPNDSSDSEMEDKTTANLAALKLDEWLHFTLEPEAASLLLQLRQKWHSLFLRRMRAPSKPWSQVDEATIRAIIAVLSTEEQSAGLQQPSGIGQRPRPMSSEELPLASSWRSNNSRKSSADTEFSDECTTAERVLMKSPSPALHPPQKYKDRGILHPKRGTEDRSDQSSLKSTDSSSYPSPCASPSPPSSGKGSKSPSPRPNMPVRYFIMKSSNLRNLEISQQKGIWSTTPSNERKLNRAFWESSIVYLVFSVQGSGHFQGFSRMSSEIGREKSQDWGSAGLGGVFKVEWIRKESLPFQFAHHLLNPWNDNKKVQISRDGQELEPLVGEQLLQLWERLPLGEKNTTD
binding [3]: binds
